No constants are given. Whether binding was seen depends on the method and setting. In cells and extracts the contact can be indirect. Some results given as binding are weak or reduced against the parent protein; the word gives no strength.

The results in this text go back to paper PMC9515043.

The target of the test is epidermal growth factor receptor (EGFR) (human (endogenous in HT-29 and HCT-116)) (UniProt P00533). The experiment in a line: co-IP; lysates of HT-29 and HCT-116 cells (treated with non-siRNA, EGFR inhibitor, p-SPINK1, SPINK1 siRNA, with/without EGFR inhibitor); incubated with anti-EGFR or IgG antibody at 4 °C overnight, beads, elution with 0.2 M glycine-HCl pH 2.5; immunoblot with SPINK1 antibody.

B1: Serine protease inhibitor Kazal type 1 (SPINK1) (protein, UniProt P00995 24-79)
chain: DSLGREAKCYNELNGCTKIYDPVCGTDGNTYPNECVLCFENRKRQTSILIQKSGPC
For B1, the binding result is “binds”.
